Among the data in publication PMC7819943, “Rice protein-binding microarrays: a tool to detect cis-acting elements near promoter regions in rice” are binding signal values, retold here.

Amino acid sequences for entries named in this document (tags omitted).
UniProt Q0JBA9, entry or part of it: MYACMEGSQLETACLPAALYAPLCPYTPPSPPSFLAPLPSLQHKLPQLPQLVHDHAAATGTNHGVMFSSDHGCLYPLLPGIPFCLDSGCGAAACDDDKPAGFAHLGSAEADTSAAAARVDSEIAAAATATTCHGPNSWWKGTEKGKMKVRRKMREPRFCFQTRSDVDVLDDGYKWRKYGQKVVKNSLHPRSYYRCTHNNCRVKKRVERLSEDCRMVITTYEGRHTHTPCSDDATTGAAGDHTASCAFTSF

The list shows a part of the results.

In this test the target is OsWRKY34 (Oryza sativa, UniProt Q0JBA9 1-250). Nature of the test: protein-binding microarray (RPBM); PBS, 2% BSA, 51.3 ng/ul salmon testes DNA, 50 uM zinc acetate, 200 nM TF, 25 C, 1 h; high values mean tight binding. Conditions: protein: recombinant; tags: N-terminal polyhistidine and DsRed monomer fusion (pET32a); label: CyDye5-dUTP incorporated in the synthesized complementary strand; 3' TTTTT single-stranded linker to array surface; dsDNA, one strand shown. The procedure, abridged:
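Transcription factors were made in E. coli BL21-CodonPlus as N-terminal fusions to a polyhistidine tag and DsRed, then purified on Ni–NTA. After primer extension with Cy5-dUTP and blocking with 2% BSA, a custom Agilent array was exposed for 1 h at 25 °C to 200 nM protein in PBS, 2% BSA, salmon testes DNA and 50 µM zinc acetate. Washed arrays were scanned on an Axon 4000B, and the binding signal is per-feature fluorescence intensity in arbitrary units.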
Consider “CACAAACTTCCAACTTTTCCGTCACATCGTTCCAATTTCACGGAGTCACCTAGTGCAG”, for which the binding signal was 12400 fluorescence intensity (a.u.).
Regarding “GTGCTTACGTGCTAGTTAGTGCTAATAATTACTCACCATGCGGAGTCACCTAGTGCAG”, the binding signal was 8060 fluorescence intensity (a.u.).
As for “ACCTTGGCCTGCATGTCGCGGAGGGCCGCGGCCTCTTCCTCGGAGTCACCTAGTGCAG”, the binding signal was 8070 fluorescence intensity (a.u.).
For the sequence “ACCACTCCGGTCCGACTCCGACCCGAACCCCATCTCCTCTCGGAGTCACCTAGTGCAG”, the binding signal was 13400 fluorescence intensity (a.u.).
Regarding “CTAAGTTCATACTTTTGGACAGGGTTGACTTTACTTCTTTCGGAGTCACCTAGTGCAG”, the binding signal is 9900 fluorescence intensity (a.u.).
As to “TTGCCGTACAATCTTGATTTGGAGATCTTCCTGGCCAACACGGAGTCACCTAGTGCAG”, the binding signal is 9120 fluorescence intensity (a.u.).
Consider “CTCTCGTCTTCTCGTCTCGTCTTTGGCTGTGATTTGACGCCGGAGTCACCTAGTGCAG”, for which the binding signal was 11700 fluorescence intensity (a.u.).
For the sequence “CACAGCCTCAACACCCTGATACCATAATTCAACTCTGGCACGGAGTCACCTAGTGCAG”, the binding signal was 10600 fluorescence intensity (a.u.).
The value for “TGTCCCATCCGATACGACATGTCAGTCTCACTCCTCTCTTCGGAGTCACCTAGTGCAG” was 8570 fluorescence intensity (a.u.).
For the sequence “AGCCTCTACGCAACCATTACCTACTATTTGAATCGTTTTCCGGAGTCACCTAGTGCAG”, the binding signal is 9170 fluorescence intensity (a.u.).
With “TGCTTTTTTTTTTCCTTTCTAGCATTTGTTGTTTTGCGCACGGAGTCACCTAGTGCAG”, the binding signal was 16300 fluorescence intensity (a.u.).
Consider “GTGGAGTCGTTGTGTTCATGTCATTTGAGAATCTCATACCCGGAGTCACCTAGTGCAG”, for which the binding signal is 10500 fluorescence intensity (a.u.).
For “AGATCTTCCAGGCCAGTGTGTGTTTTTCACATCAACGCATCGGAGTCACCTAGTGCAG”, the binding signal was 9080 fluorescence intensity (a.u.).
The figure for “GTCCCTCATTTTGTCGCCCAGATTTTTGTCAGAACAAACACGGAGTCACCTAGTGCAG” is 12200 fluorescence intensity (a.u.); for “GAGCTTCACACACATATATTGGTAGATTATATTAGGTTTTCGGAGTCACCTAGTGCAG” it is 8800 fluorescence intensity (a.u.); for “TCTCCCTCTCTCTCTCCACCGCGCCGGCCCGGTTCGACTCCGGAGTCACCTAGTGCAG” it is 8060 fluorescence intensity (a.u.).
Consider “GTCTCGTATCATCTCATCTCATCACATCAGCACACATCACCGGAGTCACCTAGTGCAG”, for which the binding signal was 10600 fluorescence intensity (a.u.).
As for “CTAAATGTTTAACGCCGTTGACTTTTTAAAACATATTTGACGGAGTCACCTAGTGCAG”, the binding signal was 13400 fluorescence intensity (a.u.).
Turning to “ACTATTACTTCTATTTTCTAGTATTTTTTTTTGTTTCTCTCGGAGTCACCTAGTGCAG”, the binding signal is 13500 fluorescence intensity (a.u.).
On to “AGCATTAACTACATTGTCATGTTGGACTTTTATCTTATGTCGGAGTCACCTAGTGCAG”, for which the binding signal was 10800 fluorescence intensity (a.u.).
Take “AGTAAGGTTGTGTTCTTTCTCCTTCTTTCCCAACTCACTTCGGAGTCACCTAGTGCAG”: the binding signal is 10900 fluorescence intensity (a.u.).
On to “AGGGATTTTCAGTTTTTGCTTGTAACGTTTAACCACTCATCGGAGTCACCTAGTGCAG”, for which the binding signal was 10600 fluorescence intensity (a.u.).
The value for “AATCAAAGGGTGTGTATATATTTTTCTTTTTCTCCGAATACGGAGTCACCTAGTGCAG” was 11500 fluorescence intensity (a.u.); that for “TGGGGTGGATGGGTTCGTGGACCAACTGTTTCATTAGATCCGGAGTCACCTAGTGCAG” was 12900 fluorescence intensity (a.u.); that for “AGGCTTAAAAAATTTGTCTCGTGAATTAGCTTTTATTTATCGGAGTCACCTAGTGCAG” was 9870 fluorescence intensity (a.u.).
The value for “GGCCGTCCAGCGTAATTATGCACTCCTGTCCACTCGTCCACGGAGTCACCTAGTGCAG” was 10500 fluorescence intensity (a.u.); that for “ACCCACACCCACCGACCCACCCCACCAACGCATCGGCGCACGGAGTCACCTAGTGCAG” was 14600 fluorescence intensity (a.u.); that for “TTCAAAACTGCTCCGTTTCCTATTATGTCTCTTTTTCAAACGGAGTCACCTAGTGCAG” was 9360 fluorescence intensity (a.u.).
For “TCCGCCCTCTGACCGCGGCGCCAAAGCTCCTCCGCGCGCGCGGAGTCACCTAGTGCAG”, the binding signal was 8030 fluorescence intensity (a.u.).
For “GATCACATGGGCCACACTTTTTTTTAATTATTTTTTGTGTCGGAGTCACCTAGTGCAG”, the binding signal was 8040 fluorescence intensity (a.u.).
As for “CGCACCACCACCACCATTTCCACGCCCCTCTCTCCATTCCCGGAGTCACCTAGTGCAG”, the binding signal is 8680 fluorescence intensity (a.u.).
Turning to “TGGTTTGGTTTGCTTCTTCTCTGCTTCAACGGTTGGTCGACGGAGTCACCTAGTGCAG”, the binding signal was 16900 fluorescence intensity (a.u.).
Regarding “ATCATCCCCTATCTCGCCGCCTGTCCTCTTGCGATTCATGCGGAGTCACCTAGTGCAG”, the binding signal was 9110 fluorescence intensity (a.u.).
“ATTCTCTTTCATGTGATTTCTGCCCAATTTGATGTGAACCCGGAGTCACCTAGTGCAG”: the binding signal was 11700 fluorescence intensity (a.u.).
The figure for “CTGGGCTGGGTTCCATTGGGCCGAATGCATCGAGGACCCACGGAGTCACCTAGTGCAG” is 8110 fluorescence intensity (a.u.); for “TATCATTCCGCCAGATGTATAGCTTCGGTTTTCTTACTCACGGAGTCACCTAGTGCAG” it is 8900 fluorescence intensity (a.u.).
Consider “AGATTTTTGTGTCTTTTGCTTGCCCCTATCTATGTTATATCGGAGTCACCTAGTGCAG”, for which the binding signal is 9070 fluorescence intensity (a.u.).
On to “GGTGATGGTCCTCATTCTACCGTGCTGCCTCGGCAGCAACCGGAGTCACCTAGTGCAG”, for which the binding signal was 9140 fluorescence intensity (a.u.).
As for “TGTTTGACGCCGTTGACTTTTTAGCACATGTTTGACCGTTCGGAGTCACCTAGTGCAG”, the binding signal is 43600 fluorescence intensity (a.u.).
Turning to “TTGTGTCACTTACATGTGGGCTCCACATATTTATTTTTTTCGGAGTCACCTAGTGCAG”, the binding signal is 8090 fluorescence intensity (a.u.).
For “AGAACCAAATACGCACGTAGTATATCATTTGTATTTCATTCGGAGTCACCTAGTGCAG”, the binding signal is 8380 fluorescence intensity (a.u.).
For the sequence “CCTGCTGATATCAACATGTTTCACACTCTGTGCCAATTTTCGGAGTCACCTAGTGCAG”, the binding signal was 9240 fluorescence intensity (a.u.).
